Data as given in PubChem BioAssay AID1224828 (NIAID, 2016).

Aim: 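Find genes required for NF-kappaB p65 moving into the nucleus after LPS in mouse macrophages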 (primary screen)
Cells: mouse RAW264.7 G9 macrophage reporter cells (GFP-p65, Tnf promoter-mCherry)
Reagents: siRNA pool against mouse genes, 100 nM
Duration: 2 days siRNA transfection, then 40 min LPS before fixation
Treatment: LPS (Salmonella minnesota R595) at 10 ng/ml
Detection: 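Imaged p65 nuclear translocation ratio, normalised to the plate median, converted to robust z-scores and averaged across two replicates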
Scale: p65 translocation robust z-score: higher = more nuclear NF-kappaB p65 after LPS than the plate median; nuclear/cytoplasmic p65 ratio: higher = more nuclear NF-kappaB p65
Hit rule: 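Active if robust z is above 3.3 (negative regulators) or below -1.56, the Tlr4 control median (positive regulators); activity score 50 or more; control wells not called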
Calls: active = hit (p65 shift raised or lowered); inactive = no clear change
The whole screen tested about 17,000 reagents; below is an unselected part. 762 of all reagents (4.5%) count as active. 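Active calls include both raised and lowered p65 entry, mostly lowered; wells with fewer than 50 cells lack a z-score.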 Raw values vary from plate to plate and are shown uncorrected. No sequences are given here.

The opening 3 entries as a preview:
gene symbol	p65 translocation robust z-score	nuclear/cytoplasmic p65 ratio, rep 1	nuclear/cytoplasmic p65 ratio, rep 2	low cell count flag	Outcome
Klra1	-0.14	1.42	1.4	enough cells to score	inactive
Or8b43	-0.05	1.25	1.26	enough cells to score	inactive
Sh2b3	-0.26	1.77	1.43	enough cells to score	inactive

Results, from the first entry:
gene symbol	p65 translocation robust z-score	nuclear/cytoplasmic p65 ratio, rep 1	nuclear/cytoplasmic p65 ratio, rep 2	low cell count flag	Outcome
Klra1	-0.14	1.42	1.4	enough cells to score	inactive
Or8b43	-0.05	1.25	1.26	enough cells to score	inactive
Sh2b3	-0.26	1.77	1.43	enough cells to score	inactive
AI593442	1.14	1.8	1.84	enough cells to score	inactive
Wdr64		1.11	1.11	fewer than 50 cells per well; well left out of scoring	inactive
C1qtnf4	-0.43	1.37	1.47	enough cells to score	inactive
Plekho2	-1.68	1.36	1.42	enough cells to score	active
Foxe1	-0.98	1.3	1.25	enough cells to score	inactive
Ing3	-0.16	1.48	1.34	enough cells to score	inactive
Klhl18	0.62	1.61	1.68	enough cells to score	inactive
Ccdc87		1.3	1.28	fewer than 50 cells per well; well left out of scoring	inactive
Ltk	1.45	1.85	1.56	enough cells to score	inactive
Mmp14	0.5	1.49	1.42	enough cells to score	inactive
Nfya	1.41	1.7	1.54	enough cells to score	inactive
Klhl24	3.03	1.47	1.81	enough cells to score	inactive
Was	-1.86	1.35	1.23	enough cells to score	active
Tph1		1.32	1.29	fewer than 50 cells per well; well left out of scoring	inactive
Siah1a	-1.53	1.4	1.27	enough cells to score	inactive
E330037G11Rik	1.36	1.65	1.36	enough cells to score	inactive
Zfp185	-0.56	1.27	1.25	enough cells to score	inactive
E030011O05Rik		1.32	1.37	fewer than 50 cells per well; well left out of scoring	inactive
Ccdc163	-1.9	1.23	1.2	enough cells to score	active
Potefam1		1.28	1.44	fewer than 50 cells per well; well left out of scoring	inactive
Klhl9	0.61	1.51	1.59	enough cells to score	inactive
